From patent US20260125334A1, “TREATMENT PROCESS FOR PFAS-CONTAINING COMPOUNDS” (priority 2023, published 2026)

Assays:
[1] = PFOA removal from low concentration aqueous standard solution by quaternary ammonium compound, LC-QTOF of centrate (Example 1); conditions: quat added at 0.2% by weight, standard solution 641 ppt
[2] = PFOS removal from low concentration aqueous standard solution by quaternary ammonium compound, LC-QTOF of centrate (Example 1); conditions: quat added at 0.2% by weight, standard solution 818 ppt
[3] = PFAS removal from synthetic wastewater containing 1% AFFF, LC/QTOF-MS (Example 2); conditions: 100 μL of 5% quat solution in 10 mL of 1% AFFF
[4] = PFAS removal from 1.25% AFFF synthetic wastewater, NMR of aqueous layer (Example 3); conditions: 1.25% AFFF solution; NMR detection limit 100 ppm PFAS
[5] = Bromine in solution after treatment, XRF, ion exchange mechanism (Example 8)

SMILES | PFOA concentration in the presence of dimethyl quaternary amine [1] [ppt] | PFOS concentration in the presence of dimethyl quaternary amine [2] [ppt] | PFAS in AFFF contaminated water after treatment [3] | AFFF detection on NMR spectra after treatment [4] | Bromine in solution, blank (MilliQ water) after treatment ([5]; 2 g quat in 100 mL MilliQ water) | Bromine in solution, 1000 ppm PFOS sample after treatment ([5]; 2 g quat in 100 mL of 1000 ppm PFOS)
CCCCCCCCCCCCCCCCCC[N+](C)(C)CCCCCCCCCCCCCCCCCC.[Br-] [Dimethyldioctadecylammonium bromide, dimethyldioctadecylammonium bromide] | 41 | <5 | reduced the PFAS | not detected | No significant increase in bromine | increase in bromine
CCCCCCCCCC[N+](C)(C)CCCCCCCCCC.[Cl-] [Dimethyldidecylammonium chloride] | – | – | reduced the PFAS | not detected | – | –
CCCCCCCCCCCCCC[N+](C)(C)CCCCCCCCCCCCCC.[Br-] [Dimethyldimyristylammonium bromide, dimethyldimyristylammonium bromide] | 149 | 261 | reduced the PFAS | not detected | – | –
CCCCCCCCCC[N+](C)(C)CCCCCCCCCC.[Br-] [Dimethyldidecylammonium bromide, dimethyldidecylammonium bromide] | 628 | 615 | – | – | – | –
